# In PubChem BioAssay AID1347423 (Functional Genomics Laboratory (NCATS/FGL), 2020):
# Screen size: about 52,000 sequences; about 210 (0.4%) were called active.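 Rule for the calls: active = gene whose silencing raises cell survival under the drug, median off-target-corrected z-score across its silencing RNAs 2 or more; inactive = the rest.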 The list shows a part of the results.
# Experiment: Resistance to Poly (ADP-Ribose) Polymerase inhibitor: Gene Identification via Genome-wide siRNA Screen
# Conditions: mouse BRCA2 R2336H ES cells, olaparib, CellTiter-Glo viability; hits give high values
# In short: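 Genome-wide siRNA screen (3 siRNAs/gene, 20 nM) in mouse ES cells carrying hypomorphic BRCA2 R2336H; olaparib 500 nM added 48 h post-transfection, CellTiter-Glo viability 72 h later. Normalized to plate-median negative control; MAD z-scores, gene median, seed-adjusted.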
row,Sequence,z-score
1,CGACUAACAAAUUUGGUGATT against Tcfec,inactive: -0.453
2,GGGUUUCUGGAAUACAUUCTT against Mfng,inactive: 0.238
3,GGUCAACUCUAAGAUGCUGTT against 9930012K11Rik,inactive: -0.414
4,CCUACUCGUAUAAUCUUCUTT against Eif2c3,inactive: 0.312
5,GGAAAUUGCUCAGGAGUUUTT against Anxa5,inactive: -2.73
6,CCAAUUGUGAGAAGAGUGUTT against Cog7,inactive: -0.349
7,GAUAUCACGGUCAUCUGUCTT against Pde6h,inactive: 0.288
8,GGAUAAAACAGGACUUCUUTT against Wdr23,inactive: -0.602
9,GGCACCAUCGAGCUGUUAUTT against Osgep,inactive: 0.146
10,GGUCCUAUGCAGAUACCAATT against Gstk1,inactive: 0.458
11,GGGCAAAGGAAAUGGAAUCTT against Eif5,inactive: -0.164
12,GGCCAGUUUUCAGGACAGUTT against Fcgr1,inactive: 0.925
13,GCCCAUGUUUGUGAGGGUUTT against 4931440F15Rik,inactive: -0.44
14,CGAGAUUGUCAGUCUUUCCTT against Rnf110,inactive: 1.38
15,GGCCUUUCACAACAUAAAATT against BC051070,inactive: -0.345
16,GGUCAUUUUAUCUAAUGUCTT against Ctse,inactive: -1.09
17,GGCUUUAGGGAGUUGCUUCTT against 4933428G09Rik,inactive: 0.0449
18,CCUAUGCGAUUAUCGCUGCTT against Wnt7a,inactive: 0.899
19,CCUUCUAAAUGACCUGUUUTT against 1810037C20Rik,inactive: -1.33
20,GCGAAUCCAAGCUGGAUAGTT against AA408868,inactive: -1.9
21,GGUAGAAAUCAUUCUCUUUTT against Olfr1037,inactive: 0.898
22,GGUUCCCAAAGUAGAAGCATT against Dkkl1,inactive: 0.582
23,GGAAUAAUUUCUGGAUUCUTT against Maoa,inactive: 0.165
24,GCUAAAUCAGCGUAUGAUGTT against BC026374,inactive: -0.287
25,GGGCAAAUGACUUGGUGAATT against Maged2,inactive: -0.113
26,CCUUUGUAGGAACAAUUUATT against Phlda1,inactive: 0.997

row,Sequence,z-score
1,GGAGAAAUUCAUGACCAUGTT against 2210413P12Rik,inactive: 0.19
2,GGAAACAACUUUUUGCUUUTT against Gig1,inactive: 0.785
3,CCACCAUGACAAAACGUGUTT against Olfr1459,inactive: 1.56
4,GACAACAAGGUGGCUUCGGTT against Tlx2,inactive: -0.424
5,GGGCACACAUAUGACCGUUTT against Rrad,inactive: -1.23
6,CCUGAAACAUUCAGUGUCUTT against 9430083G14Rik,inactive: 1.55
7,GCCAAUACGACUGAUGAGCTT against Cst10,inactive: -0.26
8,GUUUCUCCAUGGAGUCAUUTT against Psmb5,inactive: -2.15
9,GGGAAGAACUGUGAUUAUUTT against Hspd1,inactive: -2
10,GAUAUAGUCACAGUGUUUUTT against V1ri5,inactive: 0.932
11,CCAGUGCCUCAAGCUUUCATT against 4930471M23Rik,inactive: 0.123
12,GGAGAAGGAUGGAGUGUUUTT against Brms1l,inactive: 0.182
13,GUGUUUCUUGUUGUGUACATT against Olfr1013,inactive: -0.705
14,GGCCAAAAGUAUGAAAGUATT against 9030418M05Rik,inactive: -0.83
15,GGCUUCUCCAACACUAAGATT against Smtn,inactive: 0.17
16,GGGCAUGGAGGAGUACAUUTT against Cml1,inactive: 0.471
17,GGCACUGAUAAGAAGUACCTT against Dnahc1,inactive: 0.812
18,GUAUGACCAGAAGAAAAAGTT against 1700108M19Rik,inactive: -2.92
19,GGACAUGAAGACCAAGAUGTT against Cpox,inactive: 1.05
20,GCCGCUGUCCUACAAGUUATT against Lmo1,inactive: 2.43
21,GGUCAUUGUCAGUACCGGATT against 4930444A02Rik,inactive: 0.561
22,GUUGCUAAUAUCCUGUCUGTT against Olfr115,inactive: -0.655
23,CCGCCAACACCUUUGUUUUTT against Cyp1b1,inactive: 0.217
24,CGGUACAAACAGUGCAGAUTT against 1300018P11Rik,inactive: -2.59
25,GCACCCAACCCAAAAACACTT against 5730596B20Rik,inactive: 0.175
26,GGCAAAGAUGAUGGAAAAATT against Srp68,inactive: -0.581

# Individual results from above.
# Value for GGCAAAGAUGAUGGAAAAATT against Srp68 under z-score: inactive: -0.581
# Value for GGAAACAACUUUUUGCUUUTT against Gig1 under z-score: inactive: 0.785
